# Library screen at single concentrations

Source: ChEMBL document CHEMBL3988442, “University of Dundee, Small-Polar-MMV Screening Library” (2021).

Mtb cholesterol medium: 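Growth of Mycobacterium tuberculosis over 4 days (cholesterol / DPPC medium with tyloxapol); the read-out is not stated. Compounds at 50 µM. The record gives no direction; compounds that gave an IC50 in retests scored well above the rest, so higher reads as more growth inhibition. Size under these conditions: about 69,000 compounds, about 370 of them at 50% or above in at least one test.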
Mtb glucose medium: 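Growth of Mycobacterium tuberculosis over 3 days (7H9 medium with glucose and tyloxapol); the read-out is not stated. Compounds at 50 µM. Direction is inferred from retests: higher values go with more growth inhibition. Of about 69,000 compounds tested this way, about 760 (1.1%) reached 50% or more in at least one test.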

Results are given as percent effect.
How 0% and 100% were set is not recorded. Most values in the screen are low, and negative values occur.
Compounds were drawn at random from those tested, without regard to their results.
Two or more numbers in one place are separate tests of the same structure; such repeats can differ widely.

Cc1cccn2cc(CN3CCCC(c4ccn[nH]4)C3)nc12 (stereo unspecified) read Mtb cholesterol medium: -27.77%; Mtb glucose medium: -6.542%. Cc1nc(CN(C)C2CCN(Cc3cnc(C)s3)C2)no1 (stereo unspecified) gave Mtb cholesterol medium: -9.342%; Mtb glucose medium: -6.588%. For [H][C@@]12CN(C3CCOCC3)C[C@]1([H])N(CCCc1ccc(F)cc1)C(=O)O2 the result was Mtb cholesterol medium: -0.9865%; Mtb glucose medium: 20.73%. CN(Cc1cnn(C)c1)C(=O)NCC1CCS(=O)(=O)C1 (stereo unspecified) gave Mtb cholesterol medium: -1.04%; Mtb glucose medium: -2.081%.

CC(C)(C(=O)NCC(=O)NCc1ccccc1)c1ccccc1F read Mtb cholesterol medium: 13.19%; Mtb glucose medium: 28.37%. With [H][C@@]12CN(C(=O)c3ccsc3)C[C@]1([H])C(=O)N(Cc1cccc(F)c1)C2 the screen gave Mtb cholesterol medium: 11.43%; Mtb glucose medium: 18.05% & 28.3%. CCn1ncc2c1CCCC2NCc1ccc2c(c1)OCCO2 (stereo unspecified) gave Mtb cholesterol medium: 8.289%; Mtb glucose medium: -5.139%. C[C@@H]1CN(C(=O)c2ccc[nH]2)C[C@]12CCN(CCN1CCCC1)C2=O.O=C(O)C(F)(F)F read Mtb cholesterol medium: 3.584%; Mtb glucose medium: 9.178%.

O=C(O)C(F)(F)F.[H][C@@]12COC[C@]1(COCc1cccnc1)CN(C(=O)Cc1cccs1)C2 gave Mtb cholesterol medium: 5.994% & -9.287%; Mtb glucose medium: 9.72% & -3.739%. CCC(C)C(=O)NCCc1nc(C(F)(F)F)cs1 (stereo unspecified) gave Mtb cholesterol medium: 14%; Mtb glucose medium: 15.37%. With Cc1ncc2c(n1)CN(CC(=O)NCCOc1ccccc1)CC2 the screen gave Mtb cholesterol medium: -15.28%; Mtb glucose medium: -15.92%. Result for [H][C@@]12COC[C@]1([H])[C@@H](OCC)CN2C(=O)c1ccnnc1 was Mtb cholesterol medium: -10.62%; Mtb glucose medium: -5.276%.

Result for Cc1ccc(C(=O)N2CCN(CCC(C)(C)C)CC2)c(=O)[nH]1 was Mtb cholesterol medium: 5.652%; Mtb glucose medium: 6.474%. For CCN(CC1CCCO1)C(=O)Nc1ccc(OC)c(C)c1 (stereo unspecified) the result was Mtb cholesterol medium: 13.28%; Mtb glucose medium: -17.74% & 10.82%. CCOc1c(OC)cc(/C=C/c2ncc(C(=O)NC)s2)cc1OC gave Mtb cholesterol medium: -14.31%; Mtb glucose medium: -5.981% & 1.014%. CSCCCNC(=O)C(c1cccc(F)c1)N(C)C (stereo unspecified) read Mtb cholesterol medium: -16.07% & -4.168%; Mtb glucose medium: -11.52%.

COc1c(CNC2CCc3c(F)cccc32)c(C)nn1C.Cl (stereo unspecified) gave Mtb cholesterol medium: 1.887%; Mtb glucose medium: 0.3669%. For Cc1ccc(C(C(=O)NCc2cc(C)[nH]n2)N(C)C)cc1 (stereo unspecified) the result was Mtb cholesterol medium: 4.42%; Mtb glucose medium: 0.425%. COc1cc(C(=O)NCCc2ccccc2OC)on1 read Mtb cholesterol medium: 42.91%; Mtb glucose medium: 43.12% & 56.47%. CCC/C=C/c1ccc(CN2CCN(C)CC2)cn1 read Mtb cholesterol medium: -5.499%; Mtb glucose medium: -3.117%.

CCn1ccnc1CN1C[C@@H](NC(=O)C2CC2)[C@H](c2ccc(C)cc2)C1 gave Mtb cholesterol medium: -6.446%; Mtb glucose medium: -12.45%. COC[C@@H]1CCCN1C(=O)c1cc(-c2cccc(OC)c2)n[nH]1 gave Mtb cholesterol medium: -1.733%; Mtb glucose medium: 14.56%. For CCN(C(=O)NCc1ccccc1OC(F)F)C(C)c1cccnc1 (stereo unspecified) the result was Mtb cholesterol medium: 15.01%; Mtb glucose medium: 25%. With O=C(O)C(F)(F)F.[H][C@@]12CCN(Cc3cnn(C)c3)[C@]1([H])CC[C@@H](C(=O)NCc1ccco1)O2 the screen gave Mtb cholesterol medium: 6.57%; Mtb glucose medium: -0.2919%.

Cc1nccn1CCN(C)C(=O)c1cn(-c2ccccc2)nn1 gave Mtb cholesterol medium: -19.84%; Mtb glucose medium: -3.333%. COc1ccc(CN(C)C(=O)CCC(=O)c2cccs2)c(OC)c1OC gave Mtb cholesterol medium: -8.867%; Mtb glucose medium: -2.534%. Cc1ccncc1CN1CCOCC1c1[nH]ncc1C (stereo unspecified) read Mtb cholesterol medium: 0.7641% & -2.432%; Mtb glucose medium: -8.39%. With Cc1csc(CCNC(=O)c2cc3c(nc2O)CCC(C)C3)n1 (stereo unspecified) the screen gave Mtb cholesterol medium: 1.437% & 15.71%; Mtb glucose medium: 16.09%.

For Cl.Cl.O=C([C@@H]1CSCN1)N1CC2(CCNCC2)c2cc(Cl)ccc21 the result was Mtb cholesterol medium: 12.94%; Mtb glucose medium: 26.52%. For Cc1oc(-c2ccco2)nc1CN1CCCC(Cn2cncn2)C1 (stereo unspecified) the result was Mtb cholesterol medium: -56.51%; Mtb glucose medium: -79.77%. Result for O=C(O)C(F)(F)F.O=C(O)C(F)(F)F.[H][C@]12CCN(C(=O)c3ccncc3)C[C@@]1([H])OCCN(C1CCOCC1)C2 was Mtb cholesterol medium: -12.43%; Mtb glucose medium: -10.93%. For CC(C)(C)c1nnc(CN2CCN(S(C)(=O)=O)CC2)o1 the result was Mtb cholesterol medium: 0.1214%; Mtb glucose medium: -9.708%.

O=C(c1ccccn1)N1CCC2(CC1)COC(COc1cccnc1)C2 (stereo unspecified) read Mtb cholesterol medium: 0.6469%; Mtb glucose medium: -1.31%. Cc1noc(C2CCN(Cc3cc(=O)n(C)c(=O)n3C)CC2)n1 gave Mtb cholesterol medium: 10.9%; Mtb glucose medium: 20.34%. With O=C(O)C(F)(F)F.O=C(O)C(F)(F)F.[H][C@@]12CCN(C3CCOCC3)C[C@]1([H])[C@@H](CNC(=O)c1ccncc1)OC2 the screen gave Mtb cholesterol medium: 0.322%; Mtb glucose medium: -4.761% & -2.981%. Result for CCN(C)Cc1nc(-c2ccccc2NS(C)(=O)=O)oc1C was Mtb cholesterol medium: 71.8%; Mtb glucose medium: 19.9%.

CC[C@H](C)[C@H](NC(=O)c1cccc(-n2cnnn2)c1)C(=O)OC gave Mtb cholesterol medium: -9.001%; Mtb glucose medium: -0.3732%. For [H][C@]12CC[C@]([H])(CN(C(=O)C3CCC3)C1)N(C(=O)c1ccc(OCC)cc1)C2 the result was Mtb cholesterol medium: 2.789% & 9.123%; Mtb glucose medium: -3.814%. COCCN1C(=O)c2ccc(C(=O)NCCc3c[nH]cn3)cc2C1=O gave Mtb cholesterol medium: -14.11%; Mtb glucose medium: -9.343%. CN(Cc1cccnc1)C1CC2(CCN(c3ncc(F)cn3)CC2)C1.O=C(O)C(F)(F)F.O=C(O)C(F)(F)F read Mtb cholesterol medium: 3.288%; Mtb glucose medium: 24.81%.

2 of the entries, repeated:

COc1c(CNC2CCc3c(F)cccc32)c(C)nn1C.Cl (stereo unspecified) gave Mtb cholesterol medium: 1.887%; Mtb glucose medium: 0.3669%.
Cl.Cl.O=C([C@@H]1CSCN1)N1CC2(CCNCC2)c2cc(Cl)ccc21 gave Mtb cholesterol medium: 12.94%; Mtb glucose medium: 26.52%.